Experimental data from PubChem BioAssay AID2685 (National Center for Advancing Translational Sciences (NCATS), 2010).
The other results are listed elsewhere or left out. These are further read-outs of the screen, such as a control signal, another cell line or another target. No call is given for them. Most of these compounds were active or inconclusive in the main read-out, so they are no random draw. The note in brackets gives the kind of curve behind each potency; many fits are weak.

Assay: qHTS Assay for Lipid Storage Modulators in Drosophila S3 Cells;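 on cell number change: cells counted by Cell Tracker Red CMTPX staining in the red channel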
Settings: BODIPY lipid droplet fluorescence, 18-24 h; for cell number change: measured here: cell count max response, cells fed with added oleic acid
In short: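 Drosophila S3 cells loaded with oleic acid (400 uM, as added) and compounds at several concentrations; lipid droplets imaged by 488-nm laser-scanning cytometry, 500–530 nm intensity and object ratio to cell channel. Percent activity normalized to 20 uM Triacsin C.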

[1] = measured here: lipid fluorescence (Fed channel) AC50, cells fed with added oleic acid
[2] = measured here: cell number channel AC50, cells fed with added oleic acid

COc1cc(NC(=O)c2ccc3c(c2)OCCO3)ccc1NC(=O)c1ccccc1Cl
cell number change: 14.1% | AC50 [1]: 16.4 µM [rising, single point]

COc1cc(/C=C/C(=O)OCC(=O)N2CC(=O)Nc3ccccc32)ccc1O
cell number change: 21.4% | AC50 [1]: 4.61 µM [rising, full curve]

Cc1ccc(OCCC(=O)OCC(=O)NC2CCS(=O)(=O)C2)cc1 (stereo unspecified)
cell number change: -20.5%

COc1ccc(N2CC(NS(=O)(=O)c3cccnc3)CC2=O)cc1 (stereo unspecified)
AC50 [1]: 4.61 µM [rising, full curve]

O=C(Nc1ccc2c(c1)OCO2)C1CC(c2ccc(Cl)cc2)=NO1 (stereo unspecified)
cell number change: -18.8%

CC(=O)Nc1ccc(NC(=O)CSc2ncnc3sc(C)c(C)c23)cc1
AC50 [1]: 22.4 µM [falling, single point]

O=C(NNC(=O)c1sccc1-n1cccc1)Nc1ccc(F)cc1
cell number change: -11.8%

CC1Cc2ccccc2N1S(=O)(=O)c1ccc2c(c1)n(C)c(=O)c(=O)n2C (stereo unspecified)
cell number change: 103% | AC50 [2]: 9.2 µM [rising, partial curve] | AC50 [1]: 5.8 µM [rising, partial curve]

O=C(CCCc1ccccc1)NC12CC3CC(CC(C3)C1)C2
AC50 [2]: 0.651 µM [rising, full curve, poor fit]

Cc1ccc(C(CC(=O)N2CCCC2)c2ccccc2)c(O)c1 (stereo unspecified)
cell number change: -1.42%

COc1cc2c(cc1OC)CN(c1ccc(C(N)=O)cc1[N+](=O)[O-])CC2
cell number change: -1.9% | AC50 [1]: 29.1 µM [falling, partial curve, poor fit]

COc1cc(CNCc2ccc3c(c2)OCO3)c([N+](=O)[O-])cc1OC
cell number change: -18% | AC50 [1]: 0.651 µM [falling, single point]

Cc1cccc(OCC(=O)N2CCc3ccccc3C2)c1
cell number change: -4.56%

CC(C)c1nc2c(s1)CCc1onc(-c3cccc([N+](=O)[O-])c3)c1-2
cell number change: 15.2%

O=C(CN1CCNCC1)NCCSc1ccc(Cl)cc1
cell number change: -17.6% | AC50 [2]: 0.00461 µM [rising, full curve, poor fit]

Cn1c(SCC(=O)N2CCCC2)nc2ccccc2c1=O
cell number change: -0.0707%

CC(=O)c1ccc(Nc2cc(C)nc3nc(C)nn23)cc1
cell number change: 16.1% | AC50 [1]: 8.2 µM [rising, partial curve, poor fit]

Cc1ccc2nc(Nc3ccc(C)c(Cl)c3)c3nncn3c2c1
cell number change: 1.39% | AC50 [1]: 4.11 µM [rising, partial curve]

O=C(CNc1cc(S(=O)(=O)N2CCCC2)ccc1OCC(F)(F)F)Nc1cccc(C(F)(F)F)c1
cell number change: -8.53%

Cc1c(N2C(=O)/C(=C\c3cccc4ccccc34)SC2=S)c(=O)n(-c2ccccc2)n1C
cell number change: 2.67% | AC50 [1]: 6.51 µM [falling, single point]

O=C(COC(=O)C1CCC1)NCc1ccccc1Cl
cell number change: 2.54% | AC50 [1]: 6.51 µM [falling, single point]

CCOc1cc(NC(=O)CCl)c(OCC)cc1NC(=O)CCl
cell number change: -20.8% | AC50 [1]: 29.1 µM [falling, single point]

Cc1csc(C(C)NC(=O)c2ccc(OC3CCN(CCc4ccccc4)CC3)cc2)n1 (stereo unspecified)
cell number change: 27.1%

COCCCNc1nc2ccccc2nc1NS(=O)(=O)c1ccc(C)cc1
cell number change: 34.2% | AC50 [2]: 0.00461 µM [rising, full curve, poor fit]

CCOC(=O)C(=CNc1nc(-c2ccc3ccccc3c2)cs1)C(=O)OCC
cell number change: 23.9% | AC50 [1]: 4.61 µM [rising, partial curve, poor fit]

O=C(c1ccc(-c2ccccc2Cl)o1)N1CCN(S(=O)(=O)c2cccs2)CC1
AC50 [2]: 0.00411 µM [falling, full curve, poor fit]

Cc1cccc(CCNC(=O)c2cc(S(=O)(=O)N3CCCCC3)c[nH]2)c1
cell number change: -12.9%

CCOc1ccc(C(=O)Nc2c3c(nn2-c2ccc(F)cc2)CS(=O)C3)cc1 (stereo unspecified)
AC50 [2]: 1.3 µM [rising, partial curve]

Cc1ccc2[nH]c(=O)c(C3C(C#N)=C(N)Oc4c3ccc3cccnc43)cc2c1 (stereo unspecified)
cell number change: -43.6% | AC50 [2]: 29.1 µM [falling, single point]

Oc1ccc(/C=N/Nc2nc(-c3ccc(Cl)cc3)cc(C(F)(F)F)n2)cc1
cell number change: -50.7% | AC50 [2]: 10.3 µM [falling, partial curve]

CC(C)OP(=O)(OC(C)C)C(Nc1ccc([N+](=O)[O-])cc1)c1cccc([N+](=O)[O-])c1 (stereo unspecified)
cell number change: 8.77%

COc1ccc([C@H]2CC(=O)C=C(c3ccc4c(c3)OCCO4)C2)cc1
cell number change: 8.42% | AC50 [1]: 0.00517 µM [rising, full curve, poor fit]

O=C(Cc1ccc([N+](=O)[O-])cc1)N1CCc2ccccc2C1
cell number change: 10.9% | AC50 [1]: 29.1 µM [rising, single point]

COCC(=O)Nc1nnc(-c2cccs2)s1
cell number change: -14.6% | AC50 [2]: 0.184 µM [falling, full curve, poor fit]

Cc1cccc2sc(N(CCCN(C)C)C(=O)CCc3ccccc3)nc12
cell number change: -39.9% | AC50 [2]: 25.9 µM [falling, single point] | AC50 [1]: 16.4 µM [falling, single point]
